Consider 3 molecules from PMC6224402.

Chains of the proteins cited; added tags and fusions are not shown.
UniProt Q9P1W9: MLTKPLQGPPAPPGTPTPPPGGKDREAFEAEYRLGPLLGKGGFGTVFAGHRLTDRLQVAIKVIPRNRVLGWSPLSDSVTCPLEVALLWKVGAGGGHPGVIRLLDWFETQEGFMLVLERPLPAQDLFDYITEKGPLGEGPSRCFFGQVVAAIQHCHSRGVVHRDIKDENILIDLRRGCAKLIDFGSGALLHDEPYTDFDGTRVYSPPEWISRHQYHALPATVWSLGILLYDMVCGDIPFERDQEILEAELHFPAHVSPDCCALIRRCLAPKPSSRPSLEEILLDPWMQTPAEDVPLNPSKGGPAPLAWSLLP

No constants are given. Whether binding was seen depends on the method and setting. In cells and extracts the contact can be indirect. Some binding calls cover weakened binding; strength is not graded here. For part of these data: Sequences can lack the tags named with a protein.

One assay has as its target HA-tagged PIM2 (human) (UniProt Q9P1W9). The assay can be described thus: co-IP; HEK293T cells overexpressing tagged proteins; IP buffer lysate; immunoprecipitation with anti-HA or anti-Flag antibody, immunoblotting.
The target in assay [1] is Flag-tagged PIM2 (Proviral Insertion in Murine Lymphomas 2) (human) (UniProt Q9P1W9). The description is as above.
Assay [2] addresses endogenous PIM2 (human (endogenous in MCF-7)) (UniProt Q9P1W9). The assay can be described thus: co-IP; endogenous proteins, MCF-7 cell lysate; immunoprecipitation with anti-PIM2 or anti-HK2 antibody, immunoblotting.

B1: GFP-tagged N-HK2 (amino acid residues 1–480) (domain or fragment, UniProt P52789 1-480)
chain: MIASHLLAYFFTELNHDQVQKVDQYLYHMRLSDETLLEISKRFRKEMEKGLGATTHPTAAVKMLPTFVRSTPDGTEHGEFLALDLGGTNFRVLWVKVTDNGLQKVEMENQIYAIPEDIMRGSGTQLFDHIAECLANFMDKLQIKDKKLPLGFTFSFPCHQTKLDESFLVSWTKGFKSSGVEGRDVVALIRKAIQRRGDFDIDIVAVVNDTVGTMMTCGYDDHNCEIGLIVGTGSNACYMEEMRHIDMVEGDEGRMCINMEWGAFGDDGSLNDIRTEFDQEIDMGSLNPGKQLFEKMISGMYMGELVRLILVKMAKEELLFGGKLSPELLNTGRFETKDISDIEGEKDGIRKAREVLMRLGLDPTQEDCVATHRICQIVSTRSASLCAATLAAVLQRIKENKGEERLRSTIGVDGSVYKKHPHFAKRLHKTVRRLVPGCDVRFLRSEDGSGKGAAMVTAVAYRLADQHRARQKTLEHLQLS
On to B1, for which, in the assay with HA-tagged PIM2 (human), the binding result is listed as “binds”.

B2: HA-tagged HK2 (Hexokinase-II) (enzyme, UniProt P52789 1-917)
chain: MIASHLLAYFFTELNHDQVQKVDQYLYHMRLSDETLLEISKRFRKEMEKGLGATTHPTAAVKMLPTFVRSTPDGTEHGEFLALDLGGTNFRVLWVKVTDNGLQKVEMENQIYAIPEDIMRGSGTQLFDHIAECLANFMDKLQIKDKKLPLGFTFSFPCHQTKLDESFLVSWTKGFKSSGVEGRDVVALIRKAIQRRGDFDIDIVAVVNDTVGTMMTCGYDDHNCEIGLIVGTGSNACYMEEMRHIDMVEGDEGRMCINMEWGAFGDDGSLNDIRTEFDQEIDMGSLNPGKQLFEKMISGMYMGELVRLILVKMAKEELLFGGKLSPELLNTGRFETKDISDIEGEKDGIRKAREVLMRLGLDPTQEDCVATHRICQIVSTRSASLCAATLAAVLQRIKENKGEERLRSTIGVDGSVYKKHPHFAKRLHKTVRRLVPGCDVRFLRSEDGSGKGAAMVTAVAYRLADQHRARQKTLEHLQLSHDQLLEVKRRMKVEMERGLSKETHASAPVKMLPTYVCATPDGTEKGDFLALDLGGTNFRVLLVRVRNGKWGGVEMHNKIYAIPQEVMHGTGDELFDHIVQCIADFLEYMGMKGVSLPLGFTFSFPCQQNSLDESILLKWTKGFKASGCEGEDVVTLLKEAIHRREEFDLDVVAVVNDTVGTMMTCGFEDPHCEVGLIVGTGSNACYMEEMRNVELVEGEEGRMCVNMEWGAFGDNGCLDDFRTEFDVAVDELSLNPGKQRFEKMISGMYLGEIVRNILIDFTKRGLLFRGRISERLKTRGIFETKFLSQIESDCLALLQVRAILQHLGLESTCDDSIIVKEVCTVVARRAAQLCGAGMAAVVDRIRENRGLDALKVTVGVDGTLYKLHPHFAKVMHETVKDLAPKCDVSFLQSEDGSGKGAALITAVACRIREAGQR
For B2, in assay [1], the binding entry is recorded as “binds”.

B3: endogenous HK2 (enzyme, UniProt P52789 1-917)
chain: B2 chain
Turning to B3, the binding entry in assay [2] is “binds”.
